Laboratory results taken from publication doi:10.1101/362988.
Results are given in words; binding and its absence hold for the method and conditions named. Binding seen in cells or lysates may run through a third protein. Some entries that bind do so weakly or less than the wild type. For part of these data: Where a sequence is shown, tags or fusion partners need not be part of it.

T1: Mta3-Avi-3xFLAG (mouse (endogenous in ES cells)), Q924K8
T1 chain: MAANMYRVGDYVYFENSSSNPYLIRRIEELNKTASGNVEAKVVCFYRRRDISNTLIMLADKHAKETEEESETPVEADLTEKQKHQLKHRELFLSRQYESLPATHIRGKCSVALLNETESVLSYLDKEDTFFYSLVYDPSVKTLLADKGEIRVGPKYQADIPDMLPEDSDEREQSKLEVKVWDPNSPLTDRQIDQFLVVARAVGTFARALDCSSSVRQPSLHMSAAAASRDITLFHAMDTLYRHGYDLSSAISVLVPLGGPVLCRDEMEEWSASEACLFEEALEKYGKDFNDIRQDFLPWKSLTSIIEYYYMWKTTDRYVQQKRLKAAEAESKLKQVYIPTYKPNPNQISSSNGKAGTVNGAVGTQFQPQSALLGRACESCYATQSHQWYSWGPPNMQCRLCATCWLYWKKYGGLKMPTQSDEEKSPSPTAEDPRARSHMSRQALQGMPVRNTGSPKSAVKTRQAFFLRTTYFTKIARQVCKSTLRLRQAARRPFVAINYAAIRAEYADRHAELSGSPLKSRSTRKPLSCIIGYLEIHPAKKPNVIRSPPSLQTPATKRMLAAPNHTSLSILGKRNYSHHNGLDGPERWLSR

T2: Mta1-Avi-3xFLAG (mouse (endogenous in ES cells)), Q8K4B0
T2 chain: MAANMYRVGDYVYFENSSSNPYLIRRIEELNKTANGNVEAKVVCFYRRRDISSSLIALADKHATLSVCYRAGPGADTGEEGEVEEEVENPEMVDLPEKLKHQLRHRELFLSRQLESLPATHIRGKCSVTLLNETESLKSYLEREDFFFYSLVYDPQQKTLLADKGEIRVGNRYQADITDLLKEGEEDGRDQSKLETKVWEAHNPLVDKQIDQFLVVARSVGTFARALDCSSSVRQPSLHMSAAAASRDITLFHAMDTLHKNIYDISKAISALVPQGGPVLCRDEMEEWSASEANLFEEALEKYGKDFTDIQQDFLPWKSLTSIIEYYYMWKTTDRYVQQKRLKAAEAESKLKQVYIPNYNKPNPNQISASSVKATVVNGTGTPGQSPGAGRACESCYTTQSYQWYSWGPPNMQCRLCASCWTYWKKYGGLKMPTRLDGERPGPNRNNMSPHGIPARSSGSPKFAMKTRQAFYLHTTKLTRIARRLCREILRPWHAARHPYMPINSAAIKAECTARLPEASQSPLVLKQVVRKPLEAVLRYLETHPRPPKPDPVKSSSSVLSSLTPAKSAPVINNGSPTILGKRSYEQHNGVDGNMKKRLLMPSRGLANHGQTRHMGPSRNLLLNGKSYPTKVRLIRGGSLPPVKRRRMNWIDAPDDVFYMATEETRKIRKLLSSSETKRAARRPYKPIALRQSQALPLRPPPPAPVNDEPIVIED

T3: Mta2-GFP (mouse (endogenous in ES cells)), Q9R190
T3 chain: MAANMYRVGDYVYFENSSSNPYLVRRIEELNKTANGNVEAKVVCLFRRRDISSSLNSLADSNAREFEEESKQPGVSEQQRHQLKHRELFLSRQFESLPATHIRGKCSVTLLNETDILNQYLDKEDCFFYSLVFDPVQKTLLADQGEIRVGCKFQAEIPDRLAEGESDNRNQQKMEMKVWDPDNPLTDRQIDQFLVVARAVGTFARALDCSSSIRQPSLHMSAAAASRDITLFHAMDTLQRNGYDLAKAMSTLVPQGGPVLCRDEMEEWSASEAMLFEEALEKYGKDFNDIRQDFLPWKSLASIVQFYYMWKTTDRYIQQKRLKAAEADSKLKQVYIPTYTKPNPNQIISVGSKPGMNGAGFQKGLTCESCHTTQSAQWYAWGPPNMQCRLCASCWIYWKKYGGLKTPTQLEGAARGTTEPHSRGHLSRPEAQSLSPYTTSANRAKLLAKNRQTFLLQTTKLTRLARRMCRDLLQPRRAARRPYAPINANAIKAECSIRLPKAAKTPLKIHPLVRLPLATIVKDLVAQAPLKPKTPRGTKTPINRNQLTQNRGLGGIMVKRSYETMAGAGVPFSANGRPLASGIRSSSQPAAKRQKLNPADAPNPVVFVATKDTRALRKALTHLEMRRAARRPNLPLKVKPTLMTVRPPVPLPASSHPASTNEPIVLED


What was measured:
Experiment in all cases: co-IP
[1] = molecular target: Mta1-Avi-3xFLAG (mouse (endogenous in ES cells)) (UniProt Q8K4B0)
[2] = molecular target: Mta2-GFP (mouse (endogenous in ES cells)) (UniProt Q9R190)
[3] = molecular target: Mta3-Avi-3xFLAG (mouse (endogenous in ES cells)) (UniProt Q924K8)
[4] = molecular target: T1, Mta3-Avi-3xFLAG (mouse (endogenous in …)); details: remark: other sources report otherwise
[5] = molecular target: T2, Mta1-Avi-3xFLAG (mouse (endogenous in …)); details: remark: other sources report otherwise
[6] = molecular target: T3, Mta2-GFP (mouse (endogenous in ES …)); details: remark: other sources report otherwise

Molecule	binding [1]	binding [2]	binding [3]	also measured
Mta3 (from UniProt Q924K8 1-591)	binds	binds		
Mta2 (from UniProt Q9R190 1-668)	binds		binds	
Mta1 (from UniProt Q8K4B0 1-715)		binds	binds	
Mta3, Q924K8 1-591 (protein) MAANMYRVGDYVYFENSSSNPYLIRRIEELNKTASGNVEAKVVCFYRRRDISNTLIMLADKHAKETEEESETPVEADLTEKQKHQLKHRELFLSRQYESLPATHIRGKCSVALLNETESVLSYLDKEDTFFYSLVYDPSVKTLLADKGEIRVGPKYQADIPDMLPEDSDEREQSKLEVKVWDPNSPLTDRQIDQFLVVARAVGTFARALDCSSSVRQPSLHMSAAAASRDITLFHAMDTLYRHGYDLSSAISVLVPLGGPVLCRDEMEEWSASEACLFEEALEKYGKDFNDIRQDFLPWKSLTSIIEYYYMWKTTDRYVQQKRLKAAEAESKLKQVYIPTYKPNPNQISSSNGKAGTVNGAVGTQFQPQSALLGRACESCYATQSHQWYSWGPPNMQCRLCATCWLYWKKYGGLKMPTQSDEEKSPSPTAEDPRARSHMSRQALQGMPVRNTGSPKSAVKTRQAFFLRTTYFTKIARQVCKSTLRLRQAARRPFVAINYAAIRAEYADRHAELSGSPLKSRSTRKPLSCIIGYLEIHPAKKPNVIRSPPSLQTPATKRMLAAPNHTSLSILGKRNYSHHNGLDGPERWLSR				binding [4]: binds
Mta1, Q8K4B0 1-715 (protein) MAANMYRVGDYVYFENSSSNPYLIRRIEELNKTANGNVEAKVVCFYRRRDISSSLIALADKHATLSVCYRAGPGADTGEEGEVEEEVENPEMVDLPEKLKHQLRHRELFLSRQLESLPATHIRGKCSVTLLNETESLKSYLEREDFFFYSLVYDPQQKTLLADKGEIRVGNRYQADITDLLKEGEEDGRDQSKLETKVWEAHNPLVDKQIDQFLVVARSVGTFARALDCSSSVRQPSLHMSAAAASRDITLFHAMDTLHKNIYDISKAISALVPQGGPVLCRDEMEEWSASEANLFEEALEKYGKDFTDIQQDFLPWKSLTSIIEYYYMWKTTDRYVQQKRLKAAEAESKLKQVYIPNYNKPNPNQISASSVKATVVNGTGTPGQSPGAGRACESCYTTQSYQWYSWGPPNMQCRLCASCWTYWKKYGGLKMPTRLDGERPGPNRNNMSPHGIPARSSGSPKFAMKTRQAFYLHTTKLTRIARRLCREILRPWHAARHPYMPINSAAIKAECTARLPEASQSPLVLKQVVRKPLEAVLRYLETHPRPPKPDPVKSSSSVLSSLTPAKSAPVINNGSPTILGKRSYEQHNGVDGNMKKRLLMPSRGLANHGQTRHMGPSRNLLLNGKSYPTKVRLIRGGSLPPVKRRRMNWIDAPDDVFYMATEETRKIRKLLSSSETKRAARRPYKPIALRQSQALPLRPPPPAPVNDEPIVIED				binding [5]: binds
Mta2, Q9R190 1-668 (protein) MAANMYRVGDYVYFENSSSNPYLVRRIEELNKTANGNVEAKVVCLFRRRDISSSLNSLADSNAREFEEESKQPGVSEQQRHQLKHRELFLSRQFESLPATHIRGKCSVTLLNETDILNQYLDKEDCFFYSLVFDPVQKTLLADQGEIRVGCKFQAEIPDRLAEGESDNRNQQKMEMKVWDPDNPLTDRQIDQFLVVARAVGTFARALDCSSSIRQPSLHMSAAAASRDITLFHAMDTLQRNGYDLAKAMSTLVPQGGPVLCRDEMEEWSASEAMLFEEALEKYGKDFNDIRQDFLPWKSLASIVQFYYMWKTTDRYIQQKRLKAAEADSKLKQVYIPTYTKPNPNQIISVGSKPGMNGAGFQKGLTCESCHTTQSAQWYAWGPPNMQCRLCASCWIYWKKYGGLKTPTQLEGAARGTTEPHSRGHLSRPEAQSLSPYTTSANRAKLLAKNRQTFLLQTTKLTRLARRMCRDLLQPRRAARRPYAPINANAIKAECSIRLPKAAKTPLKIHPLVRLPLATIVKDLVAQAPLKPKTPRGTKTPINRNQLTQNRGLGGIMVKRSYETMAGAGVPFSANGRPLASGIRSSSQPAAKRQKLNPADAPNPVVFVATKDTRALRKALTHLEMRRAARRPNLPLKVKPTLMTVRPPVPLPASSHPASTNEPIVLED				binding [6]: binds
